Drawing on publication PMC9118164, this text covers binding for two molecules.

In the assay the target is T1, Chl1-Flag (Schizosaccharomyces pombe) (UniProt O14147).
T1 sequence: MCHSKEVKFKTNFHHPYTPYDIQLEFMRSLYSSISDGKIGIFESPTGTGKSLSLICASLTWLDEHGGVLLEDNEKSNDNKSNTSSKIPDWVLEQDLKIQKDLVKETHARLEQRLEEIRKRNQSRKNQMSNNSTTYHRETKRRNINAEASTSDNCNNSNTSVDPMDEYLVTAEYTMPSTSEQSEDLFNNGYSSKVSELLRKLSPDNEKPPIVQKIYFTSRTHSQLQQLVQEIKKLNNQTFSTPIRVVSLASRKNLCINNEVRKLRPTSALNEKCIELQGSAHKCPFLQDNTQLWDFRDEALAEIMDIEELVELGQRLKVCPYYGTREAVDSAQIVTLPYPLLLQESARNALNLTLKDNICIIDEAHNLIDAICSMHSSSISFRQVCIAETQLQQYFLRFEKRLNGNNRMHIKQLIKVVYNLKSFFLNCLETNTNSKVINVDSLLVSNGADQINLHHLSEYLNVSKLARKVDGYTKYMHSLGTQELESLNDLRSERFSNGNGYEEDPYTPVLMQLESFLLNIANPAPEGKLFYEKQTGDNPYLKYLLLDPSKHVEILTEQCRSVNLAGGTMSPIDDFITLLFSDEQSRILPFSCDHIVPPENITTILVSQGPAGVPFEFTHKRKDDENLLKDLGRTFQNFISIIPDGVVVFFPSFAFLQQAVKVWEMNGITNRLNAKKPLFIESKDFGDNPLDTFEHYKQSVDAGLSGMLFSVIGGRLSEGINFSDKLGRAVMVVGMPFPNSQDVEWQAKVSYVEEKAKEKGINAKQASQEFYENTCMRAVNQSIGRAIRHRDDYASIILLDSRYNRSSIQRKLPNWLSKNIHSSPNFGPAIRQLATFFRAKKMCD
Put plainly: affinity purification with mass spectrometry; Chl1-Flag captured from S. pombe lysate on anti-Flag M2 affinity agarose beads; HC buffer (150 mM HEPES-KOH pH 7.6, 1 mM EDTA, 250 mM KCl, 10% glycerol, 1 mM DTT); eluted with 3xFlag peptide; mass spectrometry.

Results are given in words; binding and its absence hold for the method and conditions named. Binding seen in cells or lysates may run through a third protein. A yes stands for co-enrichment or nearness to the bait. Other partners may have been found. Sequences can lack the tags named with a protein.

B1: Ssb1 (protein, UniProt Q92372 1-609)
chain: MAERLSVGALRIINTSDASSFPPNPILQVLTVKELNSNPTSGAPKRYRVVLSDSINYAQSMLSTQLNHLVAENKLQKGAFVQLTQFTVNVMKERKILIVLGLNVLTELGVMDKIGNPAGLETVDALRQQQNEQNNASAPRTGISTSTNSFYGNNAAATAPAPPPMMKKPAAPNSLSTIIYPIEGLSPYQNKWTIRARVTNKSEVKHWHNQRGEGKLFSVNLLDESGEIRATGFNDQVDAFYDILQEGSVYYISRCRVNIAKKQYTNVQNEYELMFERDTEIRKAEDQTAVPVAKFSFVSLQEVGDVAKDAVIDVIGVLQNVGPVQQITSRATSRGFDKRDITIVDQTGYEMRVTLWGKTAIEFSVSEESILAFKGVKVNDFQGRSLSMLTSSTMSVDPDIQESHLLKGWYDGQGRGQEFAKHSVISSTLSTTGRSAERKNIAEVQAEHLGMSETPDYFSLKGTIVYIRKKNVSYPACPAADCNKKVFDQGGSWRCEKCNKEYDAPQYRYIITIAVGDHTGQLWLNVFDDVGKLIMHKTADELNDLQENDENAFMNCMAEACYMPYIFQCRAKQDNFKGEMRVRYTVMSINQMDWKEESKRLINFIESAQ
As to B1, the binding entry is “binds”.

B2: Ssb2 (protein, UniProt Q92373 1-279)
chain: MAYDAFGKPGYGPDFNSAFSPGMGGGAGFNEYDQSSQPSVDRQQGAGNKLRPVTIKQILNASQVHADAEFKIDGVEVGQVTFVGVLRNIHAQTTNTTYQIEDGTGMIEVRHWEHIDALSELATDTYVRVYGNIKIFSGKIYIASQYIRTIKDHNEVHFHFLEAIAVHLHFTQKANAVNGANAPGYGTSNALGYNNISSNGAANSLEQKLAEYSLTPAQMTVMQAIHSAPETNEGVHVRQLAQSVGPGIDLTAVTDFLQQEGIIYTTIDENHFKSVLQDQ
In the case of B2, the binding result is recorded as “binds”.
